PubChem BioAssay AID1259254 – NCATS, 2017
In all, the deposit lists about 59,000 reagents; this is an unselected part. Of all reagents, about 1,550 (2.6%) were called active. 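G2 share is only a proxy for re-replication; each gene was hit by three separate siRNAs, and active genes were retested.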 A number with no mark means an inactive call. Reagents against one gene are numbered here. Further read-outs or replicates are left out here. The record does not give: the amount of reagent.

Test: 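Finding genes that stop cells copying their DNA twice in one cycle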 (primary screen)
Cells: human HCT116 colorectal cancer cells
Reagents: single siRNA against human genes
Time to read-out: 3 days
Measured: 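Nuclei stained with Hoechst and imaged; cell-cycle phase assigned by DNA content; G2 share scaled per plate, non-targeting siRNA 0%, GMNN siRNA 100%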
Direction: G2 robust z-score: higher = more G2 cells, more excess DNA replication
Rule for the call: 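An siRNA counts as active if its G2 robust z-score lies at least 5 MADs above the screen median; here such calls match roughly 38% of GMNN control or more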

G2 robust z-score, by gene and reagent
RBM23 (RNA binding motif protein 23): #1 -1.02; #2 -1.11; #3 2.13
CT47A11 (cancer/testis antigen family 47 member A11): #1 0.129; #2 0.0218; #3 -0.275
CLEC4D (C-type lectin domain family 4 member D): #1 -1.18; #2 -0.139; #3 0.0321
RPL11 (ribosomal protein L11): #1 2.59; #2 1.49; #3 0.913
PHC3 (polyhomeotic homolog 3): #1 -1.04; #2 -0.518; #3 -0.0427
SOST (sclerostin): #1 -0.279; #2 1.56; #3 0.701
ANAPC5 (anaphase promoting complex subunit 5): #1 0.348; #2 3.12; #3 4.39
SLC25A34: #1 2.16; #2 2.15; #3 3.03
EDRF1 (erythroid differentiation regulatory factor 1): #1 3.29; #2 -0.947; #3 -0.0897
SPMIP2 (sperm microtubule inner protein 2): #1 -0.617; #2 -0.144; #3 0.393
STAT5B (signal transducer and activator of transcription 5B): #1 -0.728; #2 -1.45; #3 -0.256
OAZ1 (ornithine decarboxylase antizyme 1): #1 4.87; #2 -0.596; #3 4.1
TSC22D1 (TSC22 domain family member 1): #1 -0.601; #2 0.115; #3 -0.315
ZKSCAN7 (zinc finger with KRAB and SCAN domains 7): #1 -0.582; #2 -0.793; #3 1.68
C1QL2 (complement C1q like 2): #1 1.69; #2 5.22 (active); #3 0.767
OR2M5 (olfactory receptor family 2 subfamily M member 5): #1 -0.602; #2 -0.564; #3 -0.341
TMIE (transmembrane inner ear): #1 -0.319; #2 -0.0938; #3 -0.499
TRAF5 (TNF receptor associated factor 5): #1 0.578; #2 0.546; #3 -0.945
FEM1B (fem-1 homolog B): #1 -0.0711; #2 0.587; #3 0.252
GIGYF2 (GRB10 interacting GYF protein 2): #1 -0.532; #2 -0.07; #3 -0.564
RCC2 (regulator of chromosome condensation 2): #1 -0.585; #2 -1.08; #3 -0.317
C1orf167 (chromosome 1 open reading frame 167): #1 -0.694; #2 1.82; #3 -1.11
CD84 (CD84 molecule): #1 1.03; #2 0.438; #3 1.09

Single entries from the entries so far.
Under “G2 robust z-score”, EDRF1 (erythroid differentiation regulatory factor 1) #2 has -0.947
FEM1B (fem-1 homolog B) #3, G2 robust z-score: 0.252
Entry of CLEC4D (C-type lectin domain family 4 member D) #3 in “G2 robust z-score”: 0.0321
TRAF5 (TNF receptor associated factor 5) #2, G2 robust z-score = 0.546
Under “G2 robust z-score”, CT47A11 (cancer/testis antigen family 47 member A11) #3 has -0.275
Under “G2 robust z-score”, PHC3 (polyhomeotic homolog 3) #3 shows -0.0427
